Experimental data reported in the supplement of paper PMC12823440, “Inhibitors supercharge kinase turnover through native proteolytic circuits” (Nature, 2025).
Where a name gives a salt, the structure may show the parent alone. The list shows a part of the results. Hit calls seldom repeat between salt and free forms of one compound.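 In K562 cells expressing nanoluciferase-fused kinases, luminescence was recorded at 4 h intervals between 2 and 18 h, normalized as percent of control with DMSO at 100% and a positive control at 0%. A significant (2 sigma) signal drop marks a time point as decreased. The authors' rule for a hit is not shown and takes in more than the number of time points.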

Protein sequences, listed by entry. Tags and fused reporters are not part of them. Lines headed by an entry give the natural chain unless they say otherwise; changes in a name come on top.
UniProt Q15208: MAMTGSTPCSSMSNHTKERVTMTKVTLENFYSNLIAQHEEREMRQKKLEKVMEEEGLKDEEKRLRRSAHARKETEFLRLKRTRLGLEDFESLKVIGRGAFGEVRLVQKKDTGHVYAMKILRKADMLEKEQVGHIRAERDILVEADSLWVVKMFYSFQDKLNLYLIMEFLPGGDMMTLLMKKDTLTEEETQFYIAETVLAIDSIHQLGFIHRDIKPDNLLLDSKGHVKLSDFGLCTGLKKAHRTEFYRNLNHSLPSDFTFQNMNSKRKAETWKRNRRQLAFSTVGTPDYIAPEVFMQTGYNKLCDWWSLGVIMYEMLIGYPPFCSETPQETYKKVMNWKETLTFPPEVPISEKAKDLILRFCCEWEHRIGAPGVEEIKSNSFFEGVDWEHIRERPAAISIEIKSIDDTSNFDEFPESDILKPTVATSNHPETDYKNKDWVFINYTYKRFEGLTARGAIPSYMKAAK
UniProt P42680: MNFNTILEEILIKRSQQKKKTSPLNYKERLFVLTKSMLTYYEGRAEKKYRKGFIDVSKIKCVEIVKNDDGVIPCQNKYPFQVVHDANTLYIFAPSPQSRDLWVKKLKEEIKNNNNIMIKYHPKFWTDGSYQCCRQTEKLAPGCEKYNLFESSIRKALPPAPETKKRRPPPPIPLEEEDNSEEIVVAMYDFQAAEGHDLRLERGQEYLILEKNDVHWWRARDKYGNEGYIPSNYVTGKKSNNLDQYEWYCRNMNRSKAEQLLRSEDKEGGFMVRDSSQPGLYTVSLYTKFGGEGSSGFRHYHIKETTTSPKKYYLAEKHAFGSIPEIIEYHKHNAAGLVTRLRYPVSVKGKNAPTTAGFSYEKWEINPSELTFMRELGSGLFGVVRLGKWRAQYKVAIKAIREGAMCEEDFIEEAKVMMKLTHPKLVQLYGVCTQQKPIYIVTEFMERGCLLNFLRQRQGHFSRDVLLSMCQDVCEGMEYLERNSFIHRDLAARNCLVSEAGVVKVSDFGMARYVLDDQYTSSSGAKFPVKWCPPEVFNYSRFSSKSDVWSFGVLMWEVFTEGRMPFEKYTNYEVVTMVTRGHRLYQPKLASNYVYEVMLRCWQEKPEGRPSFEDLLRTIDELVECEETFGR
UniProt P29597: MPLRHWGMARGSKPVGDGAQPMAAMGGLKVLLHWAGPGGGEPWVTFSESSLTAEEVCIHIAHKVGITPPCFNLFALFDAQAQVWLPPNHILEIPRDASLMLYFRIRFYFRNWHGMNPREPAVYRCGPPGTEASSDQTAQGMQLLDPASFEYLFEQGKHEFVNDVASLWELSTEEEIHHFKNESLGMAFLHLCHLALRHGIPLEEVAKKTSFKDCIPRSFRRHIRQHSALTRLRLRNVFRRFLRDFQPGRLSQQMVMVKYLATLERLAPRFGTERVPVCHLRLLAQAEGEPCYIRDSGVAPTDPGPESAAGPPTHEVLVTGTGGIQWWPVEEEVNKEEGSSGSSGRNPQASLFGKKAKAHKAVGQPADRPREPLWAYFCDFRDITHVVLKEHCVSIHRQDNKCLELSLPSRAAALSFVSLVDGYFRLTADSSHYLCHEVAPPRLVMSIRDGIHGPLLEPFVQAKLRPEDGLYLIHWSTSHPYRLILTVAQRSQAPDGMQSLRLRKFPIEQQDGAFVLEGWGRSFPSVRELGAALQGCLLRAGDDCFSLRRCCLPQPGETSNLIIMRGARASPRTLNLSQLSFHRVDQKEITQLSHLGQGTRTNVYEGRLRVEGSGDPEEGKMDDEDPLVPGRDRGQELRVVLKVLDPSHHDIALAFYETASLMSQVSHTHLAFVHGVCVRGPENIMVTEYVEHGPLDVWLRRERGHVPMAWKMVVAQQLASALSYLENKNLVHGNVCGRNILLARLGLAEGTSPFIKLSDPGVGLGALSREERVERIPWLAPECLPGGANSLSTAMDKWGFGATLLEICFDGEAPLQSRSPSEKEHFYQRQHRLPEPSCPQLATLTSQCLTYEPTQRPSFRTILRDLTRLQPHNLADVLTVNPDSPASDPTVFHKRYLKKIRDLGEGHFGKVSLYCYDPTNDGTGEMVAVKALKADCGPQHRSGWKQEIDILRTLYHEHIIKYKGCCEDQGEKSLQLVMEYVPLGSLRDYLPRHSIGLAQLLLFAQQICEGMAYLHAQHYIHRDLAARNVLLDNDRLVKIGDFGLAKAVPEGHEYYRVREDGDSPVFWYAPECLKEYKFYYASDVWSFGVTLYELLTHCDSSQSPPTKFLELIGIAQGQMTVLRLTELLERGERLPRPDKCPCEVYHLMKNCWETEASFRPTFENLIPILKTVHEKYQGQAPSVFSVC
UniProt Q6PHR2: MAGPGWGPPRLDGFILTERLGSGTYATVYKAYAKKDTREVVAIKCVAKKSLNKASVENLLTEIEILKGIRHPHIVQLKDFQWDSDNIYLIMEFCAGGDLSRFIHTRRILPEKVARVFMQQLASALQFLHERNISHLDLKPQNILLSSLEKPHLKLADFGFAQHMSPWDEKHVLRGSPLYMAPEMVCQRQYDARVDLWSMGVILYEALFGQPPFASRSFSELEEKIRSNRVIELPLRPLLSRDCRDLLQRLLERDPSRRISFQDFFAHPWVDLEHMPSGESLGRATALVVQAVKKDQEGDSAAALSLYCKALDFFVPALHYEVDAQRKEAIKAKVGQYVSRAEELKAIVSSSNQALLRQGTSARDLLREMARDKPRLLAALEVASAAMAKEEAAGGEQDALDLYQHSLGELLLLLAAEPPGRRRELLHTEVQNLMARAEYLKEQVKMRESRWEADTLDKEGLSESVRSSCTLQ
UniProt P07947, whole entry, looked up: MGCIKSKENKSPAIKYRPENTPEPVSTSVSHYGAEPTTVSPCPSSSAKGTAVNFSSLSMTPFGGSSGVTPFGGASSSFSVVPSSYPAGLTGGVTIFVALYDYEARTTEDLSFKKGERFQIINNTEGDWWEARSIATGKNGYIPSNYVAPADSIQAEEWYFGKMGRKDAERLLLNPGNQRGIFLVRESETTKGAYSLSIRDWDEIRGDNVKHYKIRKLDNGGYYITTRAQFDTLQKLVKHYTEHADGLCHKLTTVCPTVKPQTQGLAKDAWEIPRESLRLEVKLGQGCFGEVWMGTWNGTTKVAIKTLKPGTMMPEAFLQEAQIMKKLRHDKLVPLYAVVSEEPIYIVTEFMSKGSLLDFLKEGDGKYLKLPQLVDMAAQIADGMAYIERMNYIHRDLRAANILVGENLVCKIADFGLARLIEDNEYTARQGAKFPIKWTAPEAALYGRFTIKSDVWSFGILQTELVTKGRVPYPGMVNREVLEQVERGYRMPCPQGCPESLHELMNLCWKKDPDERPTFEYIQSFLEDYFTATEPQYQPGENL
UniProt P43403: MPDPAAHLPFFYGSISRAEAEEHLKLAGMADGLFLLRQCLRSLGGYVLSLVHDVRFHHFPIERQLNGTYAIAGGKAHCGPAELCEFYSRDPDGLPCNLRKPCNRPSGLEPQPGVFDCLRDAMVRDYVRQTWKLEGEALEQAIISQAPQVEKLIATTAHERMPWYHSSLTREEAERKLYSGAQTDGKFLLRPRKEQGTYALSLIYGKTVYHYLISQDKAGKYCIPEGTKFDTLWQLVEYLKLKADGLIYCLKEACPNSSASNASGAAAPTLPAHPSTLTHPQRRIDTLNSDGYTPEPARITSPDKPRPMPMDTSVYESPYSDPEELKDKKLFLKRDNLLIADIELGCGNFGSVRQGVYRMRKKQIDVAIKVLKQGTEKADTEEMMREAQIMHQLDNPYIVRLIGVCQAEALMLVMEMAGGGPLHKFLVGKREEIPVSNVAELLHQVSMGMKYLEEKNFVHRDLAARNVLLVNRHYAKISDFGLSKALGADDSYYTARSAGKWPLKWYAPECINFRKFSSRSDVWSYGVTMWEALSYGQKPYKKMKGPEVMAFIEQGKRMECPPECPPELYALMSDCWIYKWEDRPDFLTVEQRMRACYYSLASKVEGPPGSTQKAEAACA
UniProt P00519, whole entry: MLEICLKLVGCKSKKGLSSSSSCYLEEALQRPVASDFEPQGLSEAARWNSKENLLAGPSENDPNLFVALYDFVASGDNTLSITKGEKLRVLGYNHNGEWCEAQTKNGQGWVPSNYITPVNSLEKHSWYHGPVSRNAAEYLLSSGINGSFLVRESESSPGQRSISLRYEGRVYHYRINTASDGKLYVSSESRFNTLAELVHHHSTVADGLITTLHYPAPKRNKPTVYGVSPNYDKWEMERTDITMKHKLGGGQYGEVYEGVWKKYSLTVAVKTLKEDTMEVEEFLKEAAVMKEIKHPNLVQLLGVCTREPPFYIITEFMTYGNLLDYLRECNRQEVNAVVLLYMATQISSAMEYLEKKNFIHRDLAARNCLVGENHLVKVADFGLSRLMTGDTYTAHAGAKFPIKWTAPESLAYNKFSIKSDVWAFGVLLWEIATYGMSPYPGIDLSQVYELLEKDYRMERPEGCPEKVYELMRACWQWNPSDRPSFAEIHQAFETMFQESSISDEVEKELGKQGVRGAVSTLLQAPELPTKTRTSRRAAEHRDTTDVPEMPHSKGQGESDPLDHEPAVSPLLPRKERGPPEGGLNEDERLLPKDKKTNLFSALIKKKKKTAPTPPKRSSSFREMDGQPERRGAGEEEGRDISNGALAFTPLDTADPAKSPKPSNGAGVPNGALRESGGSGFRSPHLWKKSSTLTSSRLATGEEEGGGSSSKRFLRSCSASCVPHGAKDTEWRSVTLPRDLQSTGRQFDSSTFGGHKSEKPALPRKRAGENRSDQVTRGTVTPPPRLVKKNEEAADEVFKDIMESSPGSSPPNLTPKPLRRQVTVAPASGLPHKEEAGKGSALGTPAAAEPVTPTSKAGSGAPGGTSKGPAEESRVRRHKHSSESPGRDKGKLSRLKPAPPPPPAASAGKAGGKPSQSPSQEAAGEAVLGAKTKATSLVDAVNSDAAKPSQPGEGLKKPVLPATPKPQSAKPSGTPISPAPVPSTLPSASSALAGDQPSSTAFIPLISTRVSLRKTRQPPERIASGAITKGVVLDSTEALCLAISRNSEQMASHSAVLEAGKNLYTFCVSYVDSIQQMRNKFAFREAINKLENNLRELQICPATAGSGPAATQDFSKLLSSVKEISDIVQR
UniProt P31749: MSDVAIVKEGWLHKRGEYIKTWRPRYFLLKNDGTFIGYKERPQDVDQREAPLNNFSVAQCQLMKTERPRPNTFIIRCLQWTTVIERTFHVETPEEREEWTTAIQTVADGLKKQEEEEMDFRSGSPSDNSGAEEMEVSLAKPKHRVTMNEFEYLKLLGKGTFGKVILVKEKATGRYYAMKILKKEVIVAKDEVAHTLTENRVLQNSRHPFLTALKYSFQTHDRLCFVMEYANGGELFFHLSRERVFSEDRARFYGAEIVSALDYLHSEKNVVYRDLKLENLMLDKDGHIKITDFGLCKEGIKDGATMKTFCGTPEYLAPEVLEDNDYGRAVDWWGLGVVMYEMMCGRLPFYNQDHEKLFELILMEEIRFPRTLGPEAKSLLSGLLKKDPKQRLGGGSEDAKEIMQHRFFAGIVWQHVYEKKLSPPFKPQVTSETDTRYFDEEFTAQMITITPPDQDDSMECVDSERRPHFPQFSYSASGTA

What was measured:
Conditions in all cases: K562; 2-18 h
STK38 = STK38 (UniProt Q15208); assay: kinase-Nluc reporter destabilization hit call (1 = scored as downregulated) (binary); higher = compound decreases kinase abundance
SYK = SYK (UniProt P43405); assay: as above
TEC = TEC (UniProt P42680); assay: as above
TYK2 = TYK2 (UniProt P29597); assay: as above
ULK3 = ULK3 (UniProt Q6PHR2); assay: as above
YES1 = YES1 (UniProt P07947); assay: as above
ZAK = ZAK (UniProt Q9NYL2); assay: as above
ZAP70 = ZAP70 (UniProt P43403); assay: as above
ABL1 = ABL1 (UniProt P00519); assay: number of time points (of 5) at which kinase-Nluc abundance scored as decreased, DMSO-normalised (count); higher = more persistent destabilization
AKT1 = AKT1 (UniProt P31749); assay: as above

| Structure (SMILES) | kinase-Nluc reporter destabilization hit call (STK38) | kinase-Nluc reporter destabilization hit call (SYK) | kinase-Nluc reporter destabilization hit call (TEC) | kinase-Nluc reporter destabilization hit call (TYK2) | kinase-Nluc reporter destabilization hit call (ULK3) | kinase-Nluc reporter destabilization hit call (YES1) | kinase-Nluc reporter destabilization hit call (ZAK) | kinase-Nluc reporter destabilization hit call (ZAP70) | number of time points (ABL1) | number of time points (AKT1) |
| --- | --- | --- | --- | --- | --- | --- | --- | --- | --- | --- |
| Cc1cnc(NC2CCOCC2)nc1-n1cnc(C(=O)N[C@H](CN)c2cc(F)cc(Cl)c2)c1 (10 µM) | inactive: 0 | inactive: 0 | inactive: 0 | inactive: 0 | inactive: 0 | inactive: 0 | inactive: 0 | inactive: 0 | 0 | 0 |
| C=CC(=O)Nc1cccc(-c2cccc3cnc(Nc4ccc(N5CCN(CCO)CC5)c(F)c4F)nc23)c1 [Olafertinib] (2.5 µM) | inactive: 0 | inactive: 0 | inactive: 0 | inactive: 0 | inactive: 0 | inactive: 0 | inactive: 0 | inactive: 0 | 0 | 0 |
| O=C(Nc1nc(=O)n(Cc2ccc(Cl)cc2)s1)c1ccc(Cl)cc1 (10 µM) | inactive: 0 | inactive: 0 | inactive: 0 | inactive: 0 | inactive: 0 | inactive: 0 | inactive: 0 | inactive: 0 | 0 | 0 |
| Oc1ccc(/C=C/c2cc(O)cc(O)c2)cc1 [Resveratrol] (10 µM) | inactive: 0 | inactive: 0 | inactive: 0 | inactive: 0 | inactive: 0 | inactive: 0 | inactive: 0 | inactive: 0 | 0 | 0 |
| Cn1cnc([N+](=O)[O-])c1C[N+](C)(C)C/C=C/C(=O)Nc1cc2c(Nc3ccc(Cl)c(Br)c3)ncnc2cn1 [Tarloxotinib (bromide)] (10 µM) | inactive: 0 | inactive: 0 | inactive: 0 | inactive: 0 | inactive: 0 | inactive: 0 | inactive: 0 | inactive: 0 | 0 | 0 |
| Cc1cccc(-c2[nH]c(C(C)(C)C)nc2-c2ccc3nccnc3c2)n1 (10 µM) | inactive: 0 | inactive: 0 | inactive: 0 | inactive: 0 | inactive: 0 | inactive: 0 | inactive: 0 | inactive: 0 | 0 | 0 |
| CC(C)c1cc(/C=C(\C#N)C(=O)NCCCc2ccccc2)cc(C(C)C)c1O (10 µM) | inactive: 0 | inactive: 0 | inactive: 0 | inactive: 0 | inactive: 0 | inactive: 0 | inactive: 0 | inactive: 0 | 0 | 0 |
| C[C@@H]1COCCN1c1nc(-c2cnc(N)cc2C(F)F)nc(N2[C@H](C)COC[C@@H]2C)n1 (2.5 µM) | inactive: 0 | inactive: 0 | inactive: 0 | inactive: 0 | inactive: 0 | inactive: 0 | inactive: 0 | inactive: 0 | 5 | 0 |
| CS(=O)(=O)c1ccc(-c2cnc(N)c(-c3ccc(C(F)(F)F)nc3)c2)cc1 (10 µM) | inactive: 0 | inactive: 0 | inactive: 0 | inactive: 0 | inactive: 0 | inactive: 0 | inactive: 0 | inactive: 0 | 0 | 0 |
| CC/C(=N\NC(=O)c1ccnc(NCCCN2CCOCC2)c1)c1ccc(Cl)cc1O (2.5 µM) | inactive: 0 | inactive: 0 | inactive: 0 | inactive: 0 | inactive: 0 | inactive: 0 | inactive: 0 | inactive: 0 | 0 | 0 |
| NC(=O)N1CCC(CC(=O)N2CCC([C@H]3c4ncc(Br)cc4CCc4cc(Cl)cc(Br)c43)CC2)CC1 [Lonafarnib] (2.5 µM) | inactive: 0 | inactive: 0 | inactive: 0 | inactive: 0 | inactive: 0 | inactive: 0 | inactive: 0 | inactive: 0 | 0 | 0 |
| COc1ccc2cc3[n+](cc2c1OC)CCc1cc(O)c(O)cc1-3 [Demethyleneberberine] (10 µM) | inactive: 0 | inactive: 0 | inactive: 0 | inactive: 0 | inactive: 0 | inactive: 0 | inactive: 0 | inactive: 0 | 0 | 0 |
| C[C@@H]1CN(c2cc(-c3n[nH]c4ccc(OC5(C)CC5)cc34)ncn2)C[C@H](C)O1 (10 µM) | inactive: 0 | inactive: 0 | inactive: 0 | inactive: 0 | inactive: 0 | inactive: 0 | inactive: 0 | inactive: 0 | 0 | 0 |
| Nc1ncnc2c1c(COc1cccc(Cl)c1)nn2C1CCOCC1 (10 µM) | inactive: 0 | inactive: 0 | inactive: 0 | inactive: 0 | inactive: 0 | inactive: 0 | inactive: 0 | inactive: 0 | 0 | 0 |
| c1ccc(-c2nc(=NCCN3CCOCC3)sn2-c2ccccc2)cc1 [VP3.15 (dihydrobromide)] (10 µM) | inactive: 0 | inactive: 0 | inactive: 0 | inactive: 0 | inactive: 0 | inactive: 0 | inactive: 0 | inactive: 0 | 0 | 0 |
| COc1cc(N2CCOCC2)ccc1Nc1ncc(Cl)c(Nc2ccccc2NS(C)(=O)=O)n1 (2.5 µM) | inactive: 0 | inactive: 0 | inactive: 0 | inactive: 0 | inactive: 0 | inactive: 0 | inactive: 0 | inactive: 0 | 0 | 0 |
| CCCCCCCCCCCCCCCCOP(=O)([O-])OCC[N+](C)(C)C [Miltefosine] (10 µM) | inactive: 0 | inactive: 0 | inactive: 0 | inactive: 0 | inactive: 0 | inactive: 0 | inactive: 0 | inactive: 0 | 0 | 0 |

Five of the compounds above, with tabs:
Structure (SMILES)	kinase-Nluc reporter destabilization hit call (STK38)	kinase-Nluc reporter destabilization hit call (SYK)	kinase-Nluc reporter destabilization hit call (TEC)	kinase-Nluc reporter destabilization hit call (TYK2)	kinase-Nluc reporter destabilization hit call (ULK3)	kinase-Nluc reporter destabilization hit call (YES1)	kinase-Nluc reporter destabilization hit call (ZAK)	kinase-Nluc reporter destabilization hit call (ZAP70)	number of time points (ABL1)	number of time points (AKT1)
C=CC(=O)Nc1cccc(-c2cccc3cnc(Nc4ccc(N5CCN(CCO)CC5)c(F)c4F)nc23)c1 [Olafertinib] (2.5 µM)	inactive: 0	inactive: 0	inactive: 0	inactive: 0	inactive: 0	inactive: 0	inactive: 0	inactive: 0	0	0
O=C(Nc1nc(=O)n(Cc2ccc(Cl)cc2)s1)c1ccc(Cl)cc1 (10 µM)	inactive: 0	inactive: 0	inactive: 0	inactive: 0	inactive: 0	inactive: 0	inactive: 0	inactive: 0	0	0
Oc1ccc(/C=C/c2cc(O)cc(O)c2)cc1 [Resveratrol] (10 µM)	inactive: 0	inactive: 0	inactive: 0	inactive: 0	inactive: 0	inactive: 0	inactive: 0	inactive: 0	0	0
Cn1cnc([N+](=O)[O-])c1C[N+](C)(C)C/C=C/C(=O)Nc1cc2c(Nc3ccc(Cl)c(Br)c3)ncnc2cn1 [Tarloxotinib (bromide)] (10 µM)	inactive: 0	inactive: 0	inactive: 0	inactive: 0	inactive: 0	inactive: 0	inactive: 0	inactive: 0	0	0
Cc1cccc(-c2[nH]c(C(C)(C)C)nc2-c2ccc3nccnc3c2)n1 (10 µM)	inactive: 0	inactive: 0	inactive: 0	inactive: 0	inactive: 0	inactive: 0	inactive: 0	inactive: 0	0	0
